Article PMC12719381
Results are given in words; binding and its absence hold for the method and conditions named. In cells and extracts the contact can be indirect. Some binding calls cover weakened binding; strength is not graded here.

Amino acid sequences for entries named in this document (tags omitted). A change or cut given only in a name is not applied to a line headed by its entry.
UniProt Q99873: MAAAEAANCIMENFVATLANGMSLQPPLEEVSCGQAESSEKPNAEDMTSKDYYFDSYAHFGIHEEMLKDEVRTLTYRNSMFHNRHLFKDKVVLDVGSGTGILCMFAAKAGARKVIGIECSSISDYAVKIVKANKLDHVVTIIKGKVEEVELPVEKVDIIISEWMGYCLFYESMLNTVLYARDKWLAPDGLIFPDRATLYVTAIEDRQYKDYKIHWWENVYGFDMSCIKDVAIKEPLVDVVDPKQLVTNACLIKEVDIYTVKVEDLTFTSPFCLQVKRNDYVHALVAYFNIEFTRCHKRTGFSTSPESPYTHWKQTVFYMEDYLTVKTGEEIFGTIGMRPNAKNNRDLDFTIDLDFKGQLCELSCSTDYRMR

T1: Fos-like antigen 1 (FOSL1) (human (endogenous in U251R and LN229R)) (UniProt P15407)
T1 sequence: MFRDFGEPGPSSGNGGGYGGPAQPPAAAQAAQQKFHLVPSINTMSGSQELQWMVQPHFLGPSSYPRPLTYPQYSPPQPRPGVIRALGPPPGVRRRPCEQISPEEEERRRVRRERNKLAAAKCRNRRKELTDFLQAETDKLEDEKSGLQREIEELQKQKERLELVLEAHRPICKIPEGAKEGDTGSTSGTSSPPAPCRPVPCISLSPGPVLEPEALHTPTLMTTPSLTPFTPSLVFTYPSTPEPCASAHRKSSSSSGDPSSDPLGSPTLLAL

B1: Fos-like antigen 1 (FOSL1) (protein, UniProt P15407 1-271)
chain: MFRDFGEPGPSSGNGGGYGGPAQPPAAAQAAQQKFHLVPSINTMSGSQELQWMVQPHFLGPSSYPRPLTYPQYSPPQPRPGVIRALGPPPGVRRRPCEQISPEEEERRRVRRERNKLAAAKCRNRRKELTDFLQAETDKLEDEKSGLQREIEELQKQKERLELVLEAHRPICKIPEGAKEGDTGSTSGTSSPPAPCRPVPCISLSPGPVLEPEALHTPTLMTTPSLTPFTPSLVFTYPSTPEPCASAHRKSSSSSGDPSSDPLGSPTLLAL

Assays:
[1] = target: T1, Fos-like antigen 1 (FOSL1) (human (endogenous in U251R and LN229R)); experiment: co-IP; endogenous proteins; U251R and LN229R cells lysed in RIPA buffer, pre-cleared, 1 ug anti-FOSL1 or anti-PRMT1 antibody or IgG for 16 h, Protein A/G agarose beads at 4 °C overnight, washed four times with PBS, immunoblot; silver staining of the co-IP samples
[2] = target: Protein Arginine Methyltransferase 1 (PRMT1) (human (endogenous in U251R and LN229R)) (UniProt Q99873); experiment: as above

Molecule	binding [1]	binding [2]
Protein Arginine Methyltransferase 1 (PRMT1) (from UniProt Q99873 1-371) (enzyme)	binds	–
B1	–	binds
